Among all 52,000 sequences or so, about 210 (0.4%) were called active.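 How the source made its calls: active means gene whose silencing raises cell survival under the drug, median off-target-corrected z-score across its silencing RNAs 2 or more; inactive means the rest.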 The list shows a part of the results.

Data on 104 sequences can be found in PubChem BioAssay AID1347423 (Functional Genomics Laboratory (NCATS/FGL), 2020).

The assay in a line: Resistance to Poly (ADP-Ribose) Polymerase inhibitor: Gene Identification via Genome-wide siRNA Screen. To be noted: mouse BRCA2 R2336H ES cells, olaparib, CellTiter-Glo viability; stronger effect = higher value. The method, boiled down: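 Mouse BRCA2 R2336H ES cells were reverse-transfected with siRNA (20 nM final), treated at 48 h with 500 nM olaparib, and read by CellTiter-Glo after 72 h. Scores: MAD-based z per siRNA, median per gene, seed off-target correction.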
(In general: In ATP-based viability assays light output follows the ATP content of the culture.)
As for GGAGAAAUCAAACACAAGUTT against Slco5a1, the z-score was inactive: -0.446.

As for CCCACUUCUCAGAUGAAAUTT against Zcchc11, the z-score is inactive: -1.16.

Take GGAUCUGAAGCAUUUUAAATT against Nalp10: the z-score was inactive: 0.728.

In the case of CGGUACCUUGUACAUGGUUTT against Ptprn2, the z-score was inactive: 0.584.

Regarding “GGAUUCAUCGGGUCAGGAGTT against 4933425I22Rik”, the z-score is inactive: -0.439.

Consider GGUCAAUGCUGUUAAGAAATT against Sart1, for which the z-score was inactive: -2.27.

Turning to GGAUCUUUUCGUGUCCUGCTT against Pik3ap1, the z-score was inactive: 0.775.

For the sequence CCCAUGGGAAGUUCAUCUCTT against Olfr123, the z-score was inactive: 1.66.

For CCUCAGGAUACAGACCCACTT against MGC73851, the z-score is inactive: -0.927.

With GGAGAAAGAUGAAGUCUUUTT against Sav1, the z-score was inactive: -1.78.

Take GGCUAUCGAUGAGAAAAGUTT against BC065151: the z-score is inactive: -2.47.

For the sequence GGUGCUGCUAGUGAACAAGTT against E2f4, the z-score was inactive: 0.647.

For the sequence GGUUAUAAAACUAUGGAACTT against Map2k5, the z-score is inactive: 0.58.

As for GGCACACCUAGACACAGAATT against D18Wsu98e, the z-score is inactive: -0.245.

Consider “CCAUUAAAACCACUAUCUGTT against 9130023F12Rik”, for which the z-score is inactive: 0.196.

Turning to “GCAAGAAGAGGUGUGCGUCTT against 2610204M08Rik”, the z-score was inactive: 0.665.

GCCACCUCCUACCAAAUGUTT against Sprr4: the z-score was inactive: -1.41.

Turning to GGAUGAAAACACUGAAUACTT against Olfr644, the z-score is inactive: -0.889.

Turning to “UUGGAGAGAAGCCUAUAACTT against 4930451I11Rik”, the z-score was inactive: -0.838.

For “GGAAUUCGGGAAAUUGGUCTT against A230062G08Rik”, the z-score was inactive: 0.868.

On to CCUUAAGCAGAGUUCAAAGTT against Timm22, for which the z-score is inactive: 0.042.

Take GGAGAUGAAGUCAUUGAAUTT against Casq1: the z-score was inactive: -0.021.

In the case of GGGCUACAGCCUUGAAAACTT against Lyzl4, the z-score was inactive: -0.204.

For “GGAAGAGCAGGCAUCCAUATT against 4432417N03Rik”, the z-score was inactive: -0.307.

Regarding GGUCCGAAAGGCAGCUAUATT against Fcer1g, the z-score was inactive: -0.726.

As to GGAGAAGAGAAAGAUUCUUTT against Dhx9, the z-score was inactive: 0.134.

As for GGAUAAGAGAAAAACAGAATT against Ect2, the z-score is inactive: 0.771.

Regarding CUAUGUGGUCACAAUAGAGTT against Olfr1360, the z-score was inactive: -0.137.

On to GGAAAGGGAGAUUUGUAAGTT against Hoxc4, for which the z-score was inactive: -0.107.

Take “GGUAGAUCCAGUGUUUACATT against 5730455A04Rik”: the z-score is inactive: 0.408.

Turning to “GGAGGAACCUAAUUGAAUGTT against 2310016A09Rik”, the z-score is inactive: 1.14.

Take GCCCUUUUCCUUAAUUUAUTT against Neurl: the z-score was inactive: -0.289.

As to GGUUUGAAGUGUUGACAUUTT against Drctnnb1a, the z-score was inactive: -0.399.

In the case of GGCUUUGUCGUUAAUUUUUTT against Auh, the z-score is inactive: 0.562.

With GGUUGGUCAGACAAGGAUCTT against Mic2l1, the z-score is inactive: 1.38.

In the case of GGAGUCGUCACAGCAGAGATT against Stag2, the z-score was inactive: -1.07.

Consider GGGUCUCUCAAAGAUCCUGTT against BC026432, for which the z-score was inactive: 0.885.

In the case of GGAUGGGAAGGUGAUUGUCTT against Gnb5, the z-score is inactive: -2.39.

Consider GGGAGGCUCUGGUGAACAATT against Cyp2b13, for which the z-score was inactive: -1.65.

For GGAAUACUGCUACAAAUGATT against Vav1, the z-score is inactive: 1.73.

Consider CCAAUGAUUUCCUGCUAAATT against Lst1, for which the z-score is inactive: 0.728.

In the case of GCUAGAGUGUCAUGACUUUTT against BC038156, the z-score is inactive: -0.194.

Regarding CGGCGACAUUGUUUUGCUATT against Acvr2, the z-score was inactive: -0.255.

As for CGAAAUUUACAGGAGAUCCTT against Nup93, the z-score is inactive: 0.514.

Turning to CGGGAAGCUAUCAUCAAAATT against Rgs13, the z-score is inactive: 0.119.

GGUGGCUUCAGUAAGUUCCTT against Dusp6: the z-score is inactive: -0.0667.

As for “GGGAGUGCCUGGGUUUGUATT against 0710001B24Rik”, the z-score was inactive: -1.51.

With GGAAUCAUAUCAGAAACUATT against Pde4b, the z-score is inactive: 1.75.

Turning to GCAUCCACUAUGGAGAAACTT against Ect2, the z-score is inactive: 0.257.

For the sequence GGGAUUGAUUUCAACAAUGTT against V1rc14, the z-score is inactive: 0.137.

Regarding GCCACUACAUAUAAACAUCTT against Spag1, the z-score is inactive: 0.131.

As for GGUAUGUUUACCAUAGCUCTT against Tbx18, the z-score is inactive: 2.39.

For the sequence GGGCAAAUAUCCUUAGUCATT against AW125753, the z-score was inactive: 0.568.

Regarding GGCCGUGGUAGAUUUCCUCTT against BC025816, the z-score was inactive: 1.26.

On to GCUGUUCUGCAAAACUGGATT against Rbpms, for which the z-score is inactive: -0.524.

As to GCAAGAUACCAAAUGCAUATT against Zfp316, the z-score was inactive: 0.225.

Turning to GGUUGGUAGUCCUUUAAGATT against AW212607, the z-score was inactive: 0.715.

With GGAUCGAGACAAGGCCAAATT against Fes, the z-score was inactive: 0.581.

Consider GGGAGAAGCAGAAAGAACUTT against Rundc1, for which the z-score is inactive: 0.215.

Take GGAACUCCUAAAGAAGAGGTT against Galnt15: the z-score was inactive: 0.896.

GCUCGAGAGUACUGUAGGCTT against Myst1: the z-score is inactive: 0.00323.

As to CCCUGUUACAGUCAGAAGCTT against Slc39a13, the z-score is inactive: -0.371.

On to GUACACCAGUGGAAGCACATT against Sprr2b, for which the z-score is inactive: -1.25.

On to “GGUUCUCAGGGUCCUAAACTT against 1600014E20Rik”, for which the z-score was inactive: -0.0581.

As for CCAUGGCCUAGAGCUGGAUTT against Unc5cl, the z-score was inactive: 0.136.

As for “CCAUAUUCCGGUUAAUUCATT against 1700102P08Rik”, the z-score is inactive: 0.507.

For GCACUGAUGUUAUCCGAAGTT against AW552001, the z-score is inactive: 0.627.

“GGUGUCCGUAAAUGGAGUGTT against A430033K04”: the z-score is inactive: -0.587.

Consider GCAGCUCGAUGGAACUCCATT against Abl1, for which the z-score was inactive: -0.66.

Turning to GGUCAGAUUCUUUGAUGAATT against Ssr4, the z-score is inactive: 0.72.

Turning to GGGUUUGGCCAUGAAUUUGTT against Hgf, the z-score is inactive: 0.514.

In the case of CCCUAAACCAGAUGCGUACTT against Epn3, the z-score was inactive: 0.627.

As to GGAGUCAUAUGCACAGAUCTT against Tcte3, the z-score is inactive: 0.829.

CAUAUGAAAAUGAAUGCCATT against Spink4: the z-score is inactive: 0.587.

Regarding GCGCAUGACUACAUCAGCUTT against Ptgs1, the z-score is inactive: -1.75.

Consider GGACUGUGGAUAACCUGCUTT against Hspb2, for which the z-score is inactive: 1.03.

As for GGAUAAAUGCCAUUUUGGATT against Cpeb1, the z-score is inactive: -0.04.

Turning to GGACAAGUAAAACAGAACATT against Muc4, the z-score was inactive: 0.255.

For the sequence “GGGUUUUGGGAUAAAUAACTT against D030056L22”, the z-score is inactive: -0.0651.

On to “GGAUCUGAAAGAUUAGAUUTT against 9030221C07Rik”, for which the z-score was inactive: 0.122.

Consider GCCUUGUGACGACAUAAAGTT against Rabl3, for which the z-score is inactive: -0.295.

For the sequence “CCUUGUUUGAAUAACGAACTT against 5830427D03Rik”, the z-score is inactive: 0.463.

With GGAUAUGUCAGCAUAUGUGTT against Gas41, the z-score was inactive: -0.0702.

For the sequence GGCGUGUCCUACCUUGAAATT against Scg3, the z-score was inactive: -1.09.

As to GCAAAUACUCUCAACUAACTT against Celsr3, the z-score is inactive: 1.34.

As for GUACAUCAUAGCCAAGUUCTT against Foxl2, the z-score was inactive: -1.17.

For the sequence GGAAAGGAAUGUUCAAAUUTT against Psmb8, the z-score was inactive: -0.552.

In the case of GCGAGAGUUCAAUGCGUUUTT against Pwp2h, the z-score was inactive: -1.56.

For GGAAAGAAGAAAGUGCAAUTT against Tns, the z-score was inactive: 1.89.

For CGUAUGUUGGAACAAAUGCTT against Map2k5, the z-score is inactive: 0.883.

Turning to GGCUUUCGGUUAUGACCAATT against Alas2, the z-score is inactive: 0.164.

Turning to GCCUUUAAGUGGAAUCAGUTT against Serhl, the z-score is inactive: -0.65.

Turning to GGAUAACCCUAAGUUUAUGTT against Clu, the z-score was inactive: 1.85.

Consider GCUUUACUGAGAUUGAGCGTT against Zfp289, for which the z-score was inactive: 0.533.

Regarding “GGAAAUUGGAGAUUUUUCCTT against 1700007N18Rik”, the z-score is inactive: 0.824.

As for GGAAUGGUGAUAGCCACACTT against Olfr24, the z-score was inactive: -1.31.

Regarding CGCUCUGUAGUUUCCUUUCTT against Camk1d, the z-score was inactive: 1.46.

For the sequence “CGUGACCAUCAGGCUAAAGTT against 1500015O10Rik”, the z-score is inactive: -1.95.

In the case of GCCCAACCAGUUUGAAUCUTT against AI663987, the z-score is inactive: -0.14.

As to “CGAAUAUGCAGGAUGGUAGTT against 1110034A24Rik”, the z-score is inactive: 0.786.

Turning to GGAGAAGGAAAUUCAGAAATT against Gnpda1, the z-score was inactive: 0.0973.

For the sequence GGAGAACCCUUAUGUGACATT against Pik3ca, the z-score is inactive: 1.14.

With GGAAGAAAAGGUGUUUACATT against Gpr143, the z-score was inactive: 1.18.

As to “GAUUUACUCUGGACAUUUUTT against D8Ertd354e”, the z-score was inactive: -0.735.
